In the supplement of paper PMC5393889:
The list shows a part of the results.

System: Caenorhabditis elegans N2
Assay: aldicarb interaction hit call (worm growth perturbed in combination with 10 uM aldicarb in both replicates, no effect as single agent) (binary (1 = interacts)); higher = interacts with aldicarb (growth perturbed)
Details: first compound 1.5 µM; aldicarb concentration 10 µM; 6 days; 20 °C

| SMILES | aldicarb interaction hit call |
| --- | --- |
| O=C(Nc1ccc(Br)cc1)c1ccc(F)cc1F [wact-128] + CNC(=O)O/N=C/C(C)(C)SC [aldicarb] | inactive: 0 |
| O=C(Nc1ccc(Oc2ccc(Cl)cc2)cc1)c1ccc([N+](=O)[O-])o1 [wact-461] + CNC(=O)O/N=C/C(C)(C)SC [aldicarb] | inactive: 0 |
| CCCN1CCN(C(=O)Nc2cc(Cl)cc(Cl)c2)CC1 [wact-200] + CNC(=O)O/N=C/C(C)(C)SC [aldicarb] | inactive: 0 |
| Cl.Clc1cc(Br)ccc1OCCCN1CCNCC1 [wact-85] + CNC(=O)O/N=C/C(C)(C)SC [aldicarb] | inactive: 0 |
| CC(C)(C)C(=O)NC(=S)Nc1ccc(Br)cc1 [wact-384] + CNC(=O)O/N=C/C(C)(C)SC [aldicarb] | inactive: 0 |
| COCCNC(=O)c1ccc(OC2CCN(C/C=C/c3ccc(F)cc3)CC2)c(Cl)c1 [wact-275] + CNC(=O)O/N=C/C(C)(C)SC [aldicarb] | inactive: 0 |
| CCn1ncc(Cl)c1C(=O)Nc1cccc(Cl)c1Cl [wact-71] + CNC(=O)O/N=C/C(C)(C)SC [aldicarb] | inactive: 0 |
| CCOc1ccc(/C=N/NC(=O)c2ccc(-c3ccccc3)cc2)cc1 [wact-397] + CNC(=O)O/N=C/C(C)(C)SC [aldicarb] | inactive: 0 |
| O=C(c1cc(COc2ccc(F)cc2Cl)on1)N1CCC(c2ccncc2)CC1 [dafadine-B] + CNC(=O)O/N=C/C(C)(C)SC [aldicarb] | inactive: 0 |
| CC(C)c1cc(Br)ccc1OCCCN1CCN(C)CC1.Cl [wact-149] + CNC(=O)O/N=C/C(C)(C)SC [aldicarb] | inactive: 0 |
| S=C(NCc1ccc(Cl)cc1)NC1CCN(Cc2ccccc2)CC1 [wact-108] + CNC(=O)O/N=C/C(C)(C)SC [aldicarb] | inactive: 0 |
| Ic1ccccc1-c1nc(-c2ccccc2)no1 [wact-178] + CNC(=O)O/N=C/C(C)(C)SC [aldicarb] | inactive: 0 |
| c1csc(-c2noc(-c3cccs3)n2)c1 [wact-159] + CNC(=O)O/N=C/C(C)(C)SC [aldicarb] | inactive: 0 |
| Fc1cccc(F)c1-c1nc(-c2ccccc2)no1 [wact-177] + CNC(=O)O/N=C/C(C)(C)SC [aldicarb] | inactive: 0 |
| OCC1CCCN(Cc2ccc3ccc4cccc5ccc2c3c45)C1 (stereo not drawn) [wact-219] + CNC(=O)O/N=C/C(C)(C)SC [aldicarb] | inactive: 0 |
| C(#Cc1cccc2ccccc12)c1ccccc1 [wact-341] + CNC(=O)O/N=C/C(C)(C)SC [aldicarb] | inactive: 0 |
| Ic1ccc(OCCCCCN2CCOCC2)cc1 [wact-41] + CNC(=O)O/N=C/C(C)(C)SC [aldicarb] | inactive: 0 |
| C=CCOc1ccc(NC(=O)c2ccccc2Br)cc1 [wact-569] + CNC(=O)O/N=C/C(C)(C)SC [aldicarb] | inactive: 0 |
| Cc1cc(C)cc(OCCNC(=O)c2ccccc2Br)c1 [wact-473] + CNC(=O)O/N=C/C(C)(C)SC [aldicarb] | inactive: 0 |
| CN(C)Cn1c2ccccc2c2ccccc21 [wact-36] + CNC(=O)O/N=C/C(C)(C)SC [aldicarb] | inactive: 0 |
| COc1ccc(OCC(O)CNc2ccc(Br)cc2)cc1 (stereo not drawn) [wact-627] + CNC(=O)O/N=C/C(C)(C)SC [aldicarb] | inactive: 0 |
| Clc1ccc(-c2noc(CN3CCC(Oc4cccnc4)CC3)n2)cc1 [wact-258] + CNC(=O)O/N=C/C(C)(C)SC [aldicarb] | inactive: 0 |
| O=C(c1ccc(-c2ccccc2)cc1)C1CCCN(Cc2cccnc2)C1 (stereo not drawn) [wact-244] + CNC(=O)O/N=C/C(C)(C)SC [aldicarb] | inactive: 0 |
| O=C(Nc1cc(Cl)cc(Cl)c1)c1ccc(Cl)cc1 [wact-405] + CNC(=O)O/N=C/C(C)(C)SC [aldicarb] | active: 1 |
| Fc1ccc(N2CCN(Cc3ccc(Br)s3)CC2)cc1 [wact-29] + CNC(=O)O/N=C/C(C)(C)SC [aldicarb] | inactive: 0 |
| FC(F)(F)c1nnc(-c2ccccc2)o1 [wact-619] + CNC(=O)O/N=C/C(C)(C)SC [aldicarb] | inactive: 0 |
| O=[N+]([O-])c1ccc(N2CCN(CC3CC4C=CC3C4)CC2)cc1 (stereo not drawn) [wact-46] + CNC(=O)O/N=C/C(C)(C)SC [aldicarb] | inactive: 0 |
| c1ccc(-c2nc3c(c(-c4ccccc4)n2)CCCC3)cc1 [wact-32] + CNC(=O)O/N=C/C(C)(C)SC [aldicarb] | inactive: 0 |

An excerpt of these results, as tab-separated lines:
SMILES	aldicarb interaction hit call
CCn1ncc(Cl)c1C(=O)Nc1cccc(Cl)c1Cl [wact-71] + CNC(=O)O/N=C/C(C)(C)SC [aldicarb]	inactive: 0
CCOc1ccc(/C=N/NC(=O)c2ccc(-c3ccccc3)cc2)cc1 [wact-397] + CNC(=O)O/N=C/C(C)(C)SC [aldicarb]	inactive: 0
